Measured values published in paper PMC9980815.
No constants are given. Whether binding was seen depends on the method and setting. In cells and extracts the contact can be indirect. A result given as binding can be weak or reduced; the word gives no strength. Where a sequence is shown, tags or fusion partners need not be part of it.

Molecular target: T1, GST-Abp1p (S. cerevisiae) (UniProt P15891)
T1 sequence: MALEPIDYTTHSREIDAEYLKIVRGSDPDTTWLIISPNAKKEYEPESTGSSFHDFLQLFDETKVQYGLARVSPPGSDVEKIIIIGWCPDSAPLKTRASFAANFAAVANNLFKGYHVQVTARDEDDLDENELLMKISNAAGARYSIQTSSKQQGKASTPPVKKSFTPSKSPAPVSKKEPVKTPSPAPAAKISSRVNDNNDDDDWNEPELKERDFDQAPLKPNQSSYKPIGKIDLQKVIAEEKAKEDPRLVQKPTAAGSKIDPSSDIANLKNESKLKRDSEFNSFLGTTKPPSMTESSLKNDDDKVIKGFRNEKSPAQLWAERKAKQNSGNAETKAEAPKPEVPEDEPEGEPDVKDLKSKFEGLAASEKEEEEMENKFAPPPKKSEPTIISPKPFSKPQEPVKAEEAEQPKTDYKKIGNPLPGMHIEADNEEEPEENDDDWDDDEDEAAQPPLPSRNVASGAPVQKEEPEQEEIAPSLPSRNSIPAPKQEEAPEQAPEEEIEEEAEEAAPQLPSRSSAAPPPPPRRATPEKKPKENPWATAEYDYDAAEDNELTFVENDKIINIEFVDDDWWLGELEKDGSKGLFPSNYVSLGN
Assay: pull-down; protein extracts of yeast co-expressing GST-Abp1p and Xpress-Wbm0076 incubated with glutathione agarose 5 h at 4 C; 1x PBS, 1 mM PMSF, protease inhibitors, 1% Triton X-100; washed 5 times; immunoblot anti-Xpress and anti-GST

**Q.** For “Wbm0076 (containing an N-terminal Xpress epitope) (Wolbachia endosymbiont of Brugia malayi)”, which binding is on record?
**A.** Its binding is “binds”.
